Values from PubChem BioAssay AID743454 (Peter MacCallum Cancer Centre, 2014)
The whole screen tested about 18,000 reagents; shown is a part drawn at random. 450 of them (2.5%) count as active. 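Single biological run; no consistent viability z cut-off exists, so the class columns, not z-scores, define the calls.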 No sequences are given here.

Aim: 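Knock-downs lowering viability or raising caspase 3/7 activity in vorinostat-treated resistant cells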 (primary screen)
System: human HCT116-VR colon cancer cells, selected for vorinostat resistance
Knock-down reagent: siRNA pool against human genes, 40 nM siRNA pool
Duration: vorinostat for 24 h, read-out about 72 h after transfection
Treatment: vorinostat at 2.5 µM final
Detection: 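Two measures, CellTiter-Fluor viability and luminescent caspase 3/7 activity, each as fold change against same-plate mock wells, mean of duplicates, then screen-wide robust z-score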
Reading the numbers: viability robust z-score: higher = more viable cells than screen typical; caspase robust z-score: higher = more caspase 3/7 activity than screen typical
Call rule: 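a knock-down is a hit when classed RV1 or RV2 for lowered viability, or CA1 or CA2 for caspase activation; those lethal without drug were dropped; hits were retested singly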

gene symbol	viability hit class	caspase hit class	viability robust z-score	caspase robust z-score	Call
LMBRD1 (LMBR1 domain containing 1)	no change	no change	0.4	-0.1	inactive
FRMPD4 (FERM and PDZ domain containing 4)	no change	no change	0.32	0.53	inactive
ZNF562 (zinc finger protein 562)	no change	no change	1.14	-1.07	inactive
STEAP1 (STEAP family member 1)	no change	no change	0.74	-0.68	inactive
DEFB106B (defensin beta 106B)	no change	no change	0.42	-0.18	inactive
GHRHR (growth hormone releasing hormone receptor)	no change	no change	-0.17	4.3	inactive
CXCL6 (C-X-C motif chemokine ligand 6)	no change	no change	-1.46	-1.15	inactive
PSPC1 (paraspeckle component 1)	no change	no change	-0.26	1.53	inactive
NRG4 (neuregulin 4)	no change	no change	0.19	0.04	inactive
CIRBP (cold inducible RNA binding protein)	no change	no change	-0.23	1.96	inactive
SLC16A1	no change	no change	0.01	-0.79	inactive
CTRL (chymotrypsin like)	no change	no change	1.13	-0.22	inactive
NR2C2 (nuclear receptor subfamily 2 group C member 2)	no change	no change	-0.33	-0.66	inactive
FBXL20 (F-box and leucine rich repeat protein 20)	no change	no change	-0.18	0.38	inactive
GAREM1 (GRB2 associated regulator of MAPK1 subtype 1)	no change	no change	-1.86	0.82	inactive
APOOL (apolipoprotein O like)	no change	no change	1.1	-0.24	inactive
TMEM185A (transmembrane protein 185A)	no change	no change	-1.01	1.12	inactive
MBD1 (methyl-CpG binding domain protein 1)	no change	no change	-0.4	-0.36	inactive
CIITA (class II major histocompatibility complex transactivator)	no change	no change	-0.27	0.56	inactive
C8B (complement C8 beta chain)	no change	no change	0	-1.03	inactive
MOGAT1 (monoacylglycerol O-acyltransferase 1)	no change	no change	0.94	4.26	inactive
SOX5 (SRY-box transcription factor 5)	no change	no change	-0.76	0.44	inactive
TMEM236 (transmembrane protein 236)	no change	no change	0.62	-0.82	inactive
GGH (gamma-glutamyl hydrolase)	no change	no change	-0.88	-0.03	inactive
CYP4Z1 (cytochrome P450 family 4 subfamily Z member 1)	no change	no change	-0.33	0.24	inactive
MADCAM1 (mucosal vascular addressin cell adhesion molecule 1)	no change	no change	-1.3	-0.03	inactive
GFPT2 (glutamine--fructose-6-phosphate transaminase 2)	no change	no change	1.38	-0.12	inactive
CHDH (choline dehydrogenase)	no change	no change	0.86	-0.36	inactive
GRB2 (growth factor receptor bound protein 2)	no change	no change	-0.68	-0.81	inactive
EXD3 (exonuclease 3'-5' domain containing 3)	no change	no change	-0.21	-0.58	inactive

Records listed so far whose gene name begins with F or f (2):
gene symbol	viability hit class	caspase hit class	viability robust z-score	caspase robust z-score	Call
FRMPD4 (FERM and PDZ domain containing 4)	no change	no change	0.32	0.53	inactive
FBXL20 (F-box and leucine rich repeat protein 20)	no change	no change	-0.18	0.38	inactive

Continued:
gene symbol	viability hit class	caspase hit class	viability robust z-score	caspase robust z-score	Call
LCE2B (late cornified envelope 2B)	no change	no change	0.66	1.24	inactive
RPLP2 (ribosomal protein lateral stalk subunit P2)	RV2 (reduced viability)	no change	-3.13	0.09	active
PCYOX1 (prenylcysteine oxidase 1)	no change	no change	1.62	-0.7	inactive
COLEC11 (collectin subfamily member 11)	no change	no change	0.34	-0.44	inactive
WNT5B (Wnt family member 5B)	no change	no change	0.18	-0.8	inactive
SPINK8 (serine peptidase inhibitor Kazal type 8 (putative))	no change	no change	1.18	0.94	inactive
HYKK (hydroxylysine kinase)	no change	CA2 (caspase activation)	-0.73	5.59	active
DCT (dopachrome tautomerase)	no change	no change	0.91	-0.38	inactive
PEX3 (peroxisomal biogenesis factor 3)	no change	no change	-0.16	0.32	inactive
SETD2 (SET domain containing 2, histone lysine methyltransferase)	no change	no change	-0.95	-0.78	inactive
RPL39L (ribosomal protein L39 like)	no change	no change	-0.76	0.72	inactive
INPPL1 (inositol polyphosphate phosphatase like 1)	no change	no change	-0.47	0.16	inactive
LYZL4 (lysozyme like 4)	no change	no change	-1.66	0.54	inactive
LHFPL6 (LHFPL tetraspan subfamily member 6)	no change	no change	-0.54	1.66	inactive
MLH3 (mutL homolog 3)	no change	no change	-0.25	-0.12	inactive
TEDDM1 (transmembrane epididymal protein 1)	no change	no change	-0.1	-0.01	inactive
E2F1 (E2F transcription factor 1)	no change	no change	-0.82	2.31	inactive
FOXF2 (forkhead box F2)	no change	no change	1.58	-0.09	inactive
CFAP300 (cilia and flagella associated protein 300)	no change	no change	0.03	-0.16	inactive
FBXO5 (F-box protein 5)	no change	no change	-1.18	3.27	inactive
CSNK1A1L (casein kinase 1 alpha 1 like)	no change	no change	0.6	-0.48	inactive
STK38L (serine/threonine kinase 38 like)	no change	no change	-1.11	0.6	inactive
DOK7 (docking protein 7)	no change	no change	0.64	-0.13	inactive
USP28 (ubiquitin specific peptidase 28)	no change	no change	-0.74	0.16	inactive
LARP7 (La ribonucleoprotein 7, transcriptional regulator)	no change	no change	-0.89	-1.17	inactive
LRP12 (LDL receptor related protein 12)	no change	no change	-0.54	-0.55	inactive
TMEM115 (transmembrane protein 115)	no change	no change	-1.75	1.62	inactive
